# Source: patent US11357780B2, “Methods and compositions relating to the inhibition of IP6K1” (THE CHILDREN'S MEDICAL CENTER CORPORATION, priority 2018, dated 2022)
# For at least one compound, name, drawing or mass did not settle the structure. No end group written: not given here.
# Assays:
# neutrophils = details: bradykinin, literature (20); cited from earlier work
# [1] = system: neutrophils and platelets; experiment: Ex vivo neutrophil-platelet aggregate (NPA) formation, FACS; assay type: cell-based, mouse; details: bradykinin 20 μM alone, LPS
# Procedure: Neutrophil-platelet aggregation. Mouse and human neutrophils were isolated and purified as previously described (31). Whole blood was collected into ACD tubes and platelet-rich plasma was isolated by centrifuging twice at 100×g for 5 min. Neutrophils (0.5×106) and platelets (5×106) were incubated for 2 h at 37° C. with LPS in 1 ml Tyrode's buffer (Sigma) supplemented with 1% BSA. After incubation, mouse neutrophils and platelets were stained with CD11b, CD41, and Ly6G and analyzed by flow cytometry to detect NPAs. Human neutrophils and platelets were stained with CD66, CD16, and CD41. NPA % was calculated as the percentage of CD66+, CD16+ and CD41 triple-positive cells (NPAs) among all CD66+ and CD16+ cells.
# Flow cytometry. Murine neutrophils and platelets were incubated as described above. Cells were then harvested, washed with ice-cold PBS, and stained with APC0-CD11b (eBioscience), PE-CY7-Ly6G (BD Bioscience), FITC-CD41 (eBioscience), and […] to detect leukocyte and platelet antigens. Samples were examined with a FACSCanto II™ flow cytometer (Becton Dickinson). Neutrophils were gated by their forward- and side-scatter characteristics and by their Ly-6G+/CD11b+ (neutrophil) expression pattern (30). Platelets were detected by CD41 staining NPAs were Ly-6G+CD41+. All data were analyzed using FlowJo™ software (TreeStar; FlowJo LLC).
sequence,measurement,setting,value
RPPGFSPFR [bradykinin],surface expression of the CD11b and CD18 adhesion molecules on neutrophils,neutrophils,specifically increases
same,rescue of defective NPA formation elicited by IP6K1 disruption in platelets,[1],Neither bradykinin (FIG. 5B) nor HKa alone (FIG. 5C) rescued
